First the molecules themselves.
B1: 76G7 chimeric llama-human IgG1 mAb (antibody, V domains shown)
VH: QVQLVESGGNLVQPGGSLRLSCAASGFTFSNYYMSWVRQAPGKGLEWVSDIYSDGSTTWYSDSVKGRFTISRDNAKNTLSLQMNSLKSEDTAVYYCARVKIYPGGYDAWGQGTQVTVSS
VL: QAGLTQPPSVSGSPGKTVTISCAGNSSDVGYGNYVSWYQQFPGMAPKLLIYLVNKRASGITDRFSGSKSGNTASLTISGLQSEDEADYYCASYTGSNNIVFGGGTHLTVL
notes: llama VH on human IgG1 CH1-CH2-CH3, llama VL on human lambda CL
B2: 72F8 chimeric llama-human IgG1 mAb (antibody, V domains shown)
VH: ELQLVESGGGLVQPGGSLRLSCAASGFTFSNYVMSWVRQAPGKGLEWVSDTNSGGSTSYADSVKGRFTISRDNAKNTLYLQMNSLKPEDTALYYCARSFFYGMNYWGKGTQVTVSS
VL: QSALTQPPSLSASPGSSVRLTCTLSSGNNIGSYDISWYQQKAGSPPRYLLNYYTDSRKHQDSGVPSRFSGSKDASANAGLLLISGLQPEDEADYYCSAYKSGSYRWVFGGGTHVTVL
notes: as for B1
B3: 71A3 chimeric llama-human IgG1 mAb (antibody, V domains shown)
VH: EVQLVESGGGLVQPGGSLRLSCAASGFSFKDYDITWVRQAPGKGLEWVSTITSRSGSTSYVDSVKGRFTISGDNAKNTLYLQMNSLKPEDTAVYYCAKVYATTWDVGPLGYGMDYWGKGTLVTVSS
VL: SYELTQPSALSVTLGQTAKITCQGGSLGSSYAHWYQQKPGQAPVLVIYDDDSRPSGIPERFSGSSSGGTATLTISGAQAEDEGDYYCQSADSSGNAAVFGGGTHLTVL
notes: as for B1
B4: 71G2 chimeric llama-human IgG1 mAb (antibody, V domains shown)
VH: EVQLQESGGGLVQPGGSLRLSCAASGFTFSIYDMSWVRQAPGKGLEWVSTINSDGSSTSYVDSVKGRFTISRDNAKNTLYLQMNSLKPEDTAVYYCAKVYGSTWDVGPMGYGMDYWGKGTLVTVSS
VL: SSALTQPSALSVSLGQTARITCQGGSLGSSYAHWYQQKPGQAPVLVIYGDDSRPSGIPERFSGSSSGGTATLTISGAQAEDEDDYYCQSTDSSGNTVFGGGTRLTVL
notes: as for B1

These are yes or no findings as the source states them, for the method shown. For some assays here: Binding can be weak; no strength is given.

One assay deals with T1, human MET ECD (human, UniProt P08581 25-932).
T1 construct: range 1-932; recombinant ECD made by the applicants; the stated range begins at residue 1, so it includes the signal peptide of the entry; also called hMET; hMET ECD
As to the kind of experiment: ELISA, protein in solid phase. (In general: ELISA stands for enzyme-linked immunosorbent assay.)
In the case of B1, the binding entry is on record as “binds”.
B2: the binding entry was “binds”.
B3: the binding entry is given as “binds”.
Still for that read-out and setting: then B4, with “binds”.

For another assay, the target named is llama MET ECD (llama). As to the kind of experiment: ELISA, protein in solid phase.
B1: the binding entry is “no binding (tested: 0-20 nM)”.
On the same count and under the same terms, the entry for B2 is “no binding (tested: 0-20 nM)”.
As for B3, the binding result is recorded as “no binding (tested: 0-20 nM)”.
For the molecule B4, the binding entry is “no binding (tested: 0-20 nM)”.

In the next assay the target is llama-human MET chimeric protein CH1. As to the kind of experiment: ELISA, protein in solid phase.
As for B1, the binding entry is “binds”.
On to B2, for which the binding entry is “binds”.
Regarding B3, the binding result is “binds”.
On to B4, for which the binding entry is recorded as “binds”.

The next assay has as its target llama-human MET chimeric protein CH2. As to the kind of experiment: ELISA, protein in solid phase.
In the case of B1, the binding result was “binds”.
On to B2, for which the binding result is given as “binds”.
Same read-out and setting: the entry for B3 is “binds”; for B4 it is “binds”.

The next assay addresses llama-human MET chimeric protein CH3. As to the kind of experiment: ELISA, protein in solid phase.
As for B1, the binding entry was “binds”.
Take B2: the binding entry is listed as “no binding (tested: 0-20 nM)”.
On to B3, for which the binding result is recorded as “binds”.
Consider B4, for which the binding entry is recorded as “binds”.

A further assay has as its target llama-human MET chimeric protein CH4. As to the kind of experiment: ELISA, protein in solid phase.
For B1, the binding entry is given as “binds”.
Take B2: the binding entry is “no binding (tested: 0-20 nM)”.
Still for that read-out and setting: then B3, with “no binding (tested: 0-20 nM)”.
Same read-out and setting: then B4, with “no binding (tested: 0-20 nM)”.

The next assay concerns the target llama-human MET chimeric protein CH5. As to the kind of experiment: ELISA, protein in solid phase.
For B1, the binding entry is listed as “binds”.
On to B2, for which the binding result was “no binding (tested: 0-20 nM)”.
On the same count and under the same terms, the entry for B3 is “no binding (tested: 0-20 nM)”; for B4 it is “no binding (tested: 0-20 nM)”.

Another assay addresses llama-human MET chimeric protein CH6. As to the kind of experiment: ELISA, protein in solid phase.
Consider B1, for which the binding entry is listed as “no binding (tested: 0-20 nM)”.
The same measure, in the same setting: then B2, with “binds”; and B3, with “binds”.
As to B4, the binding entry is “binds”.

The target of the next assay is llama-human MET chimeric protein CH7. As to the kind of experiment: ELISA, protein in solid phase.
Consider B1, for which the binding result is recorded as “no binding (tested: 0-20 nM)”.
In the case of B2, the binding result is listed as “binds”.
On to B3, for which the binding result is “binds”.
Turning to B4, the binding result was “binds”.

The next assay deals with T1, human MET ECD. As to the kind of experiment: ELISA, MET ECD in solid phase.
As for B1, the binding entry is listed as “binds”.
On the same count and under the same terms, then B2, with “binds”.
As for B3, the binding result is “binds”.
For the molecule B4, the binding result is “binds”.

The next assay concerns the target T2, mouse MET ECD (mouse, UniProt P16056 25-931).
T2 construct: range 1-931; recombinant ECD made by the applicants; the stated range begins at residue 1; also called mMET; mMET ECD
As to the kind of experiment: ELISA, MET ECD in solid phase.
As to B1, the binding entry is “binds”.
B2: the binding result is listed as “binds”.
On to B3, for which the binding result is on record as “binds”.
The same measure, in the same setting: then B4, with “binds”.

Source of the values: US20210087281A1 (AGOMAB THERAPEUTICS, published 2021).
